Our source for the binding values is PMC4379085.

The chains behind the UniProt entries cited, without tags or fusion partners.
UniProt Q8NDC4: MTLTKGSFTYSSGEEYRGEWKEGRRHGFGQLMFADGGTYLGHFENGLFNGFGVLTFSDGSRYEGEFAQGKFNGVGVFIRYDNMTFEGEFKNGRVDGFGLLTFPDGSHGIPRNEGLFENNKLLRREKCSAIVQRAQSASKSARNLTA

These are yes or no findings as the source states them, for the method shown. In cells and extracts the contact can be indirect. Some binding calls cover weakened binding; strength is not graded here. Where a sequence is shown, tags or fusion partners need not be part of it.

The assay addresses GST-MORN4 recombinant protein (human MORN4) (human) (UniProt Q8NDC4). Briefly: pull-down; GST-MORN4 or GST alone bound to glutathione-agarose beads 1 hr at 4°C, then incubated 2 hr with GFP-tagged MYO3A tail in COS7 lysate in CLB (5mM DTT, 150mM NaCl, 1% Triton X-100, 50mM Tris pH 7.4, 2mM EDTA); beads washed 3 times; western blot; only the target purified.

B1: GFP-MYO3A Tail FL (human myosin IIIA tail, lacks the kinase and motor domains) (domain or fragment, UniProt Q8NEV4-1 1133-1616)
chain: RESFVKKQAENAISANERFISAPNNKGSVSVVKTSTFKPEEETTNAVESNNRVYQTPKKMNNVYEEEVKQEFYLVGPEVSPKQKSVKDLEENSNLRKVEKEEAMIQSYYQRYTEERNCEESKAAYLERKAISERPSYPVPWLAENETSFKKTLEPTLSQRSIYQNANSMEKEKKTSVVTQRAPICSQEEGRGRLRHETVKERQVEPVTQAQEEEDKAAVFIQSKYRGYKRRQQLRKDKMSSFKHQRIVTTPTEVARNTHNLYSYPTKHEEINNIKKKDNKDSKATSEREACGLAIFSKQISKLSEEYFILQKKLNEMILSQQLKSLYLGVSHHKPINRRVSSQQCLSGVCKGEEPKILRPPRRPRKPKTLNNPEDSTYYYLLHKSIQEEKRRPRKDSQGKLLDLEDFYYKEFLPSRSGPKEHSPSLRERRPQQELQNQCIKANERCWAAESPEKEEEREPAANPYDFRRLLRKTSQRRRLVQQS
As for B1, the binding result is recorded as “binds”.
